Data reported in PMC2860244.
No constants are given. Whether binding was seen depends on the method and setting. In cells and extracts the contact can be indirect. These calls come from enrichment with a bait or labelling near it, and not all partners need be listed. For some assays here: No binding means not detected with the bait.

Chains of the proteins cited; added tags and fusions are not shown. Lines headed by an entry give the natural chain unless they say otherwise; changes in a name come on top. A line that says so, or that is headed by a name, gives the form on record, which may keep a tag or linker.
FACT complex subunit SSRP1 (Q08943-2, form named): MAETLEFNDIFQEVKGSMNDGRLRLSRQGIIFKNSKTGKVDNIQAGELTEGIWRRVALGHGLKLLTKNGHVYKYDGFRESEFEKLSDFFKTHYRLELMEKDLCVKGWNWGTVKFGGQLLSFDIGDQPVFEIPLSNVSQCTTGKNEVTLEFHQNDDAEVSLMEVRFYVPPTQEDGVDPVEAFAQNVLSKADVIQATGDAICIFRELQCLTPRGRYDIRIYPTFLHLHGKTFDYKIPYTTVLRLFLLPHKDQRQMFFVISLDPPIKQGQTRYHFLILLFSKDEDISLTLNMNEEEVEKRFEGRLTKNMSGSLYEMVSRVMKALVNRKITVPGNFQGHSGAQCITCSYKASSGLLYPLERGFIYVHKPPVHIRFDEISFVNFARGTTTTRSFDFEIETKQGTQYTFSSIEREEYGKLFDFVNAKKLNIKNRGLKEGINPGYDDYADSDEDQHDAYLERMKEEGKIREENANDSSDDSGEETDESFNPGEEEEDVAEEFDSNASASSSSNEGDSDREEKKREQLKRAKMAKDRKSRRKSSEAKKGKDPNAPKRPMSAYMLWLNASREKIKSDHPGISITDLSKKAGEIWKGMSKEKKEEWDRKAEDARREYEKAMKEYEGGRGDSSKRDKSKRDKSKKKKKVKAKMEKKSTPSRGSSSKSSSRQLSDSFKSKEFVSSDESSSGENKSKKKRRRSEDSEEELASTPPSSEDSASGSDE
UniProt P54276: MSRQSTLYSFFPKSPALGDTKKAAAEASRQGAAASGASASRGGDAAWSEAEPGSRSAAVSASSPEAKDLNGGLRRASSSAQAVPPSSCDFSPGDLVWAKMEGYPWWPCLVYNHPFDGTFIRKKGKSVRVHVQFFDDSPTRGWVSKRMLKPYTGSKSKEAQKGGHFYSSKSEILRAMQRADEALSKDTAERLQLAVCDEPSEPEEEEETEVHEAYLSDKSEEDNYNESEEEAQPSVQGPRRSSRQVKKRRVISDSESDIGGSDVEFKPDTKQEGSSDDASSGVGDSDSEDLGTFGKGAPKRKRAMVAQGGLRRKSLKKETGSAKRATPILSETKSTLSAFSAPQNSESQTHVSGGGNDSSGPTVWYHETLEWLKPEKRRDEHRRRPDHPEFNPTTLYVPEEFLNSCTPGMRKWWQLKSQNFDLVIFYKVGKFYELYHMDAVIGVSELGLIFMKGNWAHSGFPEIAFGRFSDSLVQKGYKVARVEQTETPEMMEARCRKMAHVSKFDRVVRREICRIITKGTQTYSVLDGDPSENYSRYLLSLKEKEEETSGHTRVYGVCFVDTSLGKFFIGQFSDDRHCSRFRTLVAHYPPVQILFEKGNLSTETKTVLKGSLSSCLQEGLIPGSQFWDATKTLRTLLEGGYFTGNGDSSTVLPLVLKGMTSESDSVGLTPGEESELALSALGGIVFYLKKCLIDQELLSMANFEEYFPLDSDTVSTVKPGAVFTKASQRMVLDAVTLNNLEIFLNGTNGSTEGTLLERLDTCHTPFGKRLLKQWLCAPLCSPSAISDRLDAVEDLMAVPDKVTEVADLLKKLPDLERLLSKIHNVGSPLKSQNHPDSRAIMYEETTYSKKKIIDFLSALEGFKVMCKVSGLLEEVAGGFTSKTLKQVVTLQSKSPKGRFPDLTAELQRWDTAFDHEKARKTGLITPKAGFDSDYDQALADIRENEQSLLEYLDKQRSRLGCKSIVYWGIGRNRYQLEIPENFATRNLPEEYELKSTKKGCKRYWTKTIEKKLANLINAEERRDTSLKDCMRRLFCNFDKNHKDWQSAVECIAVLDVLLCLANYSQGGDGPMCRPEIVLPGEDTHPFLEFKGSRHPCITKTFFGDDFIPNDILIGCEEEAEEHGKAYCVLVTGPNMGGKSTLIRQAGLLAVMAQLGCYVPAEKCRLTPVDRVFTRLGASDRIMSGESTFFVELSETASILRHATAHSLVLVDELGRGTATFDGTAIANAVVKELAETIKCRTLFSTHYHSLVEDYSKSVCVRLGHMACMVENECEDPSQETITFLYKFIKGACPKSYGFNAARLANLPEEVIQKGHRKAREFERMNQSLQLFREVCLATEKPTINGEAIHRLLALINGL
C-terminal-binding protein 2 (P56546-2, form named): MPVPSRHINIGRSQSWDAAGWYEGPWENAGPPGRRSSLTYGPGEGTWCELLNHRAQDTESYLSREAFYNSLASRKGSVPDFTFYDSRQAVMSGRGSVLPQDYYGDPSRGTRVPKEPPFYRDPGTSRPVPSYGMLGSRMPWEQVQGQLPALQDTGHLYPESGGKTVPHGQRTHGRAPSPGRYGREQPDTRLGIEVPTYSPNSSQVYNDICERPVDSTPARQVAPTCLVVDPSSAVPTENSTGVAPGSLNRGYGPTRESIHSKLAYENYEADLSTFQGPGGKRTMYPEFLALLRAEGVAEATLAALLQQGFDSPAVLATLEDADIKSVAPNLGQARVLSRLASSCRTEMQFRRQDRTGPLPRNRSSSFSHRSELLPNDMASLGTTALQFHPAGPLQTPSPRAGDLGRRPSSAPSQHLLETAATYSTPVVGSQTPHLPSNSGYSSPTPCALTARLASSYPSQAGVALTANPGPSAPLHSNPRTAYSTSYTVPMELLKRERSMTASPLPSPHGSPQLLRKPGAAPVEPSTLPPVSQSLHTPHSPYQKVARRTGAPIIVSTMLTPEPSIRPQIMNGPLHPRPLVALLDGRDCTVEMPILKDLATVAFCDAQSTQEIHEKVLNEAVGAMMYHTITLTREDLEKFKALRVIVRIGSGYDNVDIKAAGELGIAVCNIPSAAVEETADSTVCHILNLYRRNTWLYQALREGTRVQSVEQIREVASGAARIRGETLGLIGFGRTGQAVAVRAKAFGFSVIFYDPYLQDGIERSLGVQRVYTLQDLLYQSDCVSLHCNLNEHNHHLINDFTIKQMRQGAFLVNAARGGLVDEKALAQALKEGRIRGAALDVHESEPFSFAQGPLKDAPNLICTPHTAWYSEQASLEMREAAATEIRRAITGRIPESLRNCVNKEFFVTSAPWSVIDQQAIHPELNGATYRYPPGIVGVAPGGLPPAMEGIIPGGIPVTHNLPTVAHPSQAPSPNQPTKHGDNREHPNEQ
UniProt Q9CQ71: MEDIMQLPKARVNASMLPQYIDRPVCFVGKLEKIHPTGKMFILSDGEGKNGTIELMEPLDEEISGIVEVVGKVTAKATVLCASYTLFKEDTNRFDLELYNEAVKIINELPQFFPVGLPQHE
UniProt Q91ZW3: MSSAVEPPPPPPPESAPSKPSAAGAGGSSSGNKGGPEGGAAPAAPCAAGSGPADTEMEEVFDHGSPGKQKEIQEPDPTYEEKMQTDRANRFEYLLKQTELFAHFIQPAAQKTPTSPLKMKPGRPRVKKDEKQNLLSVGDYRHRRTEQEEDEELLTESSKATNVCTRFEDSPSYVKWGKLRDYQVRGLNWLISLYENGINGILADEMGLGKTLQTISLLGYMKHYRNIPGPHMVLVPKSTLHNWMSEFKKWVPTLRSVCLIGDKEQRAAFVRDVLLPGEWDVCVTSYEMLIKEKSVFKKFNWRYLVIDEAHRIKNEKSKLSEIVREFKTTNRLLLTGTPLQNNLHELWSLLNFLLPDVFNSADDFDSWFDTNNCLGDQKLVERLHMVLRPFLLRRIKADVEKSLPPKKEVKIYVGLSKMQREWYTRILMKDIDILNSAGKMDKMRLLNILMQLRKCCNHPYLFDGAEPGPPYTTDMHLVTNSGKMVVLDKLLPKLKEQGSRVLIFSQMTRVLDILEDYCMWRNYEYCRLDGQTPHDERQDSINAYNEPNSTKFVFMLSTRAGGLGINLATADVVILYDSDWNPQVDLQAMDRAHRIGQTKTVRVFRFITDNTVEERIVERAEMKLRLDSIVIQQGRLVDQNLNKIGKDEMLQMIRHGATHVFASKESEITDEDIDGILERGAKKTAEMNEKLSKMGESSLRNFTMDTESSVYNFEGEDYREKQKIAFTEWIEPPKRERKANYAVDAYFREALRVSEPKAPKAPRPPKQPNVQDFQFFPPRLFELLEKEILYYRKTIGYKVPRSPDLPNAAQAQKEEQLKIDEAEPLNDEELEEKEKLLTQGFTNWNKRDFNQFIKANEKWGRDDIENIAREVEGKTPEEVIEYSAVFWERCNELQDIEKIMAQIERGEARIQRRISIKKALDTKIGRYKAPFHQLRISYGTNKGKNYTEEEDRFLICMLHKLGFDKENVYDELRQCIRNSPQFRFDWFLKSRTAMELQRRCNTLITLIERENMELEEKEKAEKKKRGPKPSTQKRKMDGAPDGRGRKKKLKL
UniProt Q8VEK3: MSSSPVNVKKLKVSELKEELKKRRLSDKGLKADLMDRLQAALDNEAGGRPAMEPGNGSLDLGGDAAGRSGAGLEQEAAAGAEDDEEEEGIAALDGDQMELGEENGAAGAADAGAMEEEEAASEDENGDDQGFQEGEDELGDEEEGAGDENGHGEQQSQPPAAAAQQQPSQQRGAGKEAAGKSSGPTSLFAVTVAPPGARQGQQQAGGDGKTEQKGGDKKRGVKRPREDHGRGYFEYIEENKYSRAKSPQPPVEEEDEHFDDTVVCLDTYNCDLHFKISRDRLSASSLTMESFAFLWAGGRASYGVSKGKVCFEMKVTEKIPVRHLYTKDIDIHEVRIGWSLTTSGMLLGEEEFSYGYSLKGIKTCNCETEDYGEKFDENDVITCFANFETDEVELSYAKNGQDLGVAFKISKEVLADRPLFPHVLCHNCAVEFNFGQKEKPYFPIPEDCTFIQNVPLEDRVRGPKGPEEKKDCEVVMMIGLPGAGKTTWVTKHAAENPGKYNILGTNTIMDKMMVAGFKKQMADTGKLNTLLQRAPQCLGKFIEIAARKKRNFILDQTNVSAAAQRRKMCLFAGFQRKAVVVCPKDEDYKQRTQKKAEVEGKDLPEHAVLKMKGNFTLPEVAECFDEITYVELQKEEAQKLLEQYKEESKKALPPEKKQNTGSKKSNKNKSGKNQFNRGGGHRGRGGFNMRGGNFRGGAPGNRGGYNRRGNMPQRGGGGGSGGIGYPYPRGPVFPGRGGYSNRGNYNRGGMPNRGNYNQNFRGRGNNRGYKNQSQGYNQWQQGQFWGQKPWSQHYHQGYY
UniProt Q08874: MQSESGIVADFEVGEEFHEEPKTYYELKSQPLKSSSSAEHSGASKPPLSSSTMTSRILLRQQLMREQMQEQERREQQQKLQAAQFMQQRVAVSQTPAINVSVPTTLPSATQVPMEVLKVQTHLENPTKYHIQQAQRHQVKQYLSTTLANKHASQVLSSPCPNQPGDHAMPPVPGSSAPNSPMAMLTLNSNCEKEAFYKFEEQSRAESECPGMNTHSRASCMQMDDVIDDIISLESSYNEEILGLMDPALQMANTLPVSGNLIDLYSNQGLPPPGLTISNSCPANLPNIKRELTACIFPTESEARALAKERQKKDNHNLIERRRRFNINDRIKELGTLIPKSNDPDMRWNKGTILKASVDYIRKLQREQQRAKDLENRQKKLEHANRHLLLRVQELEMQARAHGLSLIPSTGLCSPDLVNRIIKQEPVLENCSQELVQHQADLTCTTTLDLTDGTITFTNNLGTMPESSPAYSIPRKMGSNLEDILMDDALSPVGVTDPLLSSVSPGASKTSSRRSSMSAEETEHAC
UniProt Q61103: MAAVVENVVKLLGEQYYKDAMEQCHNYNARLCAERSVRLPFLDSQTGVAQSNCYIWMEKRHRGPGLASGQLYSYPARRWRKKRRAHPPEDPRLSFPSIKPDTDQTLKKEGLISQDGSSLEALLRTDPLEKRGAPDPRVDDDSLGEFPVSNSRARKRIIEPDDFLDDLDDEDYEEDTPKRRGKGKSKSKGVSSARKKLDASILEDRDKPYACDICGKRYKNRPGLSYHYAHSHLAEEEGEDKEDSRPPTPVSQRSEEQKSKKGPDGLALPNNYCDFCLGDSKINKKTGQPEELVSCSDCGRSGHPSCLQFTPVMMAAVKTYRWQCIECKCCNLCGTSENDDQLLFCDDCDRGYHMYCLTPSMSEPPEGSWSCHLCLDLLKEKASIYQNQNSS
histone acetyltransferase MYST2 (Q5SVQ0-2, form named): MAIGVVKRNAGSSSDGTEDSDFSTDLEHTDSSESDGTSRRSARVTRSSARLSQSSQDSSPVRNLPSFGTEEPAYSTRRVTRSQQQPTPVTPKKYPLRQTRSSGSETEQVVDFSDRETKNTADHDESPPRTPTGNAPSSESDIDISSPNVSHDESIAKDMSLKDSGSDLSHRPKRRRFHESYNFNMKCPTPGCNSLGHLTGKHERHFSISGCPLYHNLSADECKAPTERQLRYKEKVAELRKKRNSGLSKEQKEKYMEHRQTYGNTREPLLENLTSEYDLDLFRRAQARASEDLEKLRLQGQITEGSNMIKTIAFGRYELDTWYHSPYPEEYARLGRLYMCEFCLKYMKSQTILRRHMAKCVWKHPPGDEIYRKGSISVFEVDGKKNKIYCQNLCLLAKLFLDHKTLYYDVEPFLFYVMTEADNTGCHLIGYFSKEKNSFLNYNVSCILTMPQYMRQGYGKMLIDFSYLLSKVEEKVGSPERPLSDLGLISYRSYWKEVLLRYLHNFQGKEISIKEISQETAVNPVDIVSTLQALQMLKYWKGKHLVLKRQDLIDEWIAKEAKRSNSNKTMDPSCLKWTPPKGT

biological target: Oct4-FTAP fusion protein (mouse) (UniProt P20263); assay: affinity purification with mass spectrometry; tandem affinity purification: TEV eluate of the anti-FLAG step incubated with calmodulin resin 60 min, 4°C; elution with EGTA; LC-MS/MS

binding | Substance
binds | transcription factor EB (from UniProt Q9R210 1-475)

biological target: Oct4-FTAP fusion protein (mouse) (UniProt P20263); assay: affinity purification with mass spectrometry; one-step purification on anti-FLAG M2 Dynal beads from whole-cell extracts of Oct4-FTAP ESCs against unmodified control cells (AB2.2); 150 mM NaCl, 0.1% NP-40, 90 min, 4°C; elution with AcTEV protease; three independent purifications; LC-MS/MS

binding | Substance
binds | Sal-like protein 4 (from UniProt Q8BX22 1-1067)
binds | Matrin-3 (from UniProt Q8K310 1-846)
binds | protein HIRA (from UniProt Q61666 1-1015)
binds | nuclear migration protein nudC (from UniProt O35685 1-332)
binds | replication protein A 70 kDa DNA-binding subunit (from UniProt Q8VEE4 1-623)
binds | transcription factor EB (from UniProt Q9R210 1-475)
binds | cAMP response element-binding protein (from UniProt Q01147-1)
no binding | EWS (from UniProt Q61545 1-655)
binds | nuclear factor related to kappa-B-binding protein (from UniProt Q6PIJ4 1-1296)
binds | REST corepressor 2 (from UniProt Q8C796 1-523)
binds | FACT complex subunit SSRP1 (from UniProt Q08943-2 1-713)
binds | Parp1 (from UniProt P11103 1-1013)
binds | bromodomain and WD repeat-containing protein 1 (from UniProt Q921C3 1-2304)
binds | putative DNA helicase INO80 complex homolog 1 (from UniProt Q6ZPV2 1-1559)
binds | MutS homolog 6 (from UniProt P54276 1-1358)
binds | DNA topoisomerase 2-alpha (from UniProt Q01320 1-1528)
binds | SWI/SNF complex subunit SMARCC1 (from UniProt P97496 1-1104)
no binding | Zfp206 (from UniProt Q3URR7 1-782)
binds | C-terminal-binding protein 2 (from UniProt P56546-2 1-988)
binds | zinc finger protein ZIC 2 (from UniProt Q62520 1-530)
binds | zinc finger protein 297B isoform a (from UniProt Q9DAI4)
binds | Protein Jade-1 (from UniProt Q6ZPI0 1-834)
binds | Angiomotin-like protein 2 (from UniProt Q8K371 1-772)

binding | Substance
binds | Serine/threonine-protein phosphatase 2A 65 kDa regulatory subunit A alpha isoform (from UniProt Q76MZ3 1-589)
binds | replication protein A 14 kDa subunit (from UniProt Q9CQ71 1-121)
no binding | Wwp2 (from UniProt Q9DBH0 1-870)
binds | histone chaperone ASF1A (from UniProt Q9CQE6 1-204)
binds | chromodomain-helicase-DNA-binding protein 1 (from UniProt P40201 1-1711)
binds | ATP-dependent DNA helicase 2 subunit 2 (from UniProt P27641 1-732)
binds | DnaJ homolog subfamily A member 1 (from UniProt P63037 1-397)
binds | uncharacterized protein KIAA2030 (from UniProt Q80WC1-4 1-1316)
no binding | NF45 (from UniProt Q9CXY6 1-390)
binds | DNA repair protein XRCC1 (from UniProt Q60596 1-631)
binds | SWI/SNF related, matrix associated, actin dependent regulator of chromatin, subfamily a, member 4, isoform CRA_b (from UniProt Q3TKT4 1-1613)
binds | SWI/SNF-related matrix-associated actin-dependent regulator of chromatin subfamily A member 5 (from UniProt Q91ZW3 1-1051)
binds | DNA-binding protein RFX2 (from UniProt P48379-2)
binds | Importin subunit alpha-3 (from UniProt O35344 1-521)
binds | Hnrnpu (from UniProt Q8VEK3 1-800)
binds | AT motif binding factor 1 (from UniProt Q61329 1-3726)
binds | chromodomain helicase DNA binding protein 5 isoform1 (from UniProt A2A8L1 1-1946)
binds | ATP-dependent DNA helicase 2 subunit 1 (from UniProt P23475 1-608)
binds | microphthalmia-associated transcription factor (from UniProt Q08874 1-526)
binds | Requiem/Dpf2 (from UniProt Q61103 1-391)
binds | histone acetyltransferase MYST2 (from UniProt Q5SVQ0-2 1-583)
binds | C-terminal-binding protein 1 (from UniProt O88712 1-441)
binds | carbamoyl-phosphate synthetase 2, aspartate transcarbamylase, and dihydroorotase (from UniProt B2RQC6 1-2225)
